PubChem BioAssay AID504764 | Drosophila RNAi Screening Center | 2011

Purpose: 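Genes whose knock-down alters Notch-dependent transcription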 (primary screen)
Cell system: Drosophila Kc167 cells
Reagent: long dsRNA against Drosophila genes
Time to read-out: about 5 days (4 days dsRNA, then 24 h after transfection)
Challenge: transfection of constitutively active membrane-tethered Notch lacking the extracellular domain, read 24 h later
Detection: 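Light from a Notch-responsive E(spl)m3 luciferase reporter under active Notch, with control-promoter and no-Notch reporter wells to normalise; raw counts from paired wells a and b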
Scale: induced reporter light, run 1, well a and induced reporter light, run 1, well b: higher = more light from the Notch target reporter with active Notch; control promoter light, run 1, well a and control promoter light, run 1, well b: higher = more light from the viral control promoter (cell number, transfection, viability); uninduced reporter light, run 1, well a: higher = more light from the Notch target reporter without active Notch
Active means: 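Hit if the duplicate-averaged log2 ratio of induced to control-promoter light gives a plate-wise z beyond ±2, or induced to uninduced beyond ±1.8; weak-control or discordant-duplicate wells dropped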
Calls: active = modifier hit (raised or lowered Notch signal); inactive = not a hit
The screen tested about 22,000 reagents; below is an unselected part of those with a known target gene and a result. Of all reagents, 403 (1.9%) got an active call. 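Unnormalised raw counts per well; ratio z-scores behind the hit calls and whether each hit raises or lowers signal are not deposited.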 Names joined by + are all predicted targets of the reagent. No sequences are given here. The record does not give: the amount of reagent.

gene,PubChem SID,"induced reporter light, run 1, well a","induced reporter light, run 1, well b","control promoter light, run 1, well a","control promoter light, run 1, well b","uninduced reporter light, run 1, well a",outcome
CG15147,SID104182239,1.34e5,1.45e5,1.21e5,1.65e5,10635,inactive
CG15147,SID104182240,1.21e5,1.18e5,1.63e5,1.56e5,10270,inactive
snoRNA:Me28S-C3227a + snoRNA:Me18S-A1061 + snoRNA:Me28S-C3227b + 7 more,SID104185289,1.28e5,1.82e5,2.70e5,2.50e5,15832,inactive
Ets65A,SID104189760,1.47e5,1.57e5,1.86e5,1.41e5,10325,inactive
Ets65A,SID104190530,1.30e5,1.21e5,72610,41540,11875,inactive
Ets65A,SID104190956,1.19e5,1.53e5,1.08e5,59470,10995,inactive
Tsp42Eg,SID104185904,1.83e5,1.98e5,2.19e5,1.90e5,16585,active
DAAM,SID104198271,1.62e5,2.00e5,2.35e5,2.25e5,13585,inactive
CG31826,SID104183149,1.38e5,1.67e5,1.66e5,1.64e5,12475,inactive
CG2444,SID104199638,1.11e5,1.14e5,2.22e5,2.04e5,8685,inactive
RpL11,SID104187329,6105,7045,12278,11525,680,inactive
Polr2H,SID104191434,34345,31220,21715,22890,2685,inactive
CLS,SID104195434,1.75e5,1.67e5,2.29e5,2.06e5,14585,inactive
Ipk1,SID104184027,2.20e5,2.42e5,1.65e5,1.63e5,12435,inactive
Ipk1,SID104184028,49410,32180,26200,27965,2010,inactive
Ipk1,SID104184029,34965,35755,32065,32990,2120,inactive
rtp,SID104191924,1.46e5,1.41e5,96460,78175,9275,inactive
dom,SID104184350,85575,88555,96035,1.10e5,8780,inactive
dom,SID104184351,71360,47095,75635,88605,4630,inactive
IntS12,SID104195610,1.07e5,1.47e5,1.29e5,1.30e5,18210,inactive
CG13813,SID104189860,87380,78370,78220,65100,4175,inactive
Obp83ef,SID104192060,69460,62720,66200,51535,7240,inactive
Jhbp3,SID104192039,1.09e5,1.34e5,1.57e5,1.01e5,11275,inactive
puc,SID104196826,93395,1.26e5,98185,1.19e5,6845,inactive
Glut3,SID104196473,3.20e5,3.17e5,2.94e5,3.24e5,24705,inactive
CG44836,SID104189707,1.85e5,1.42e5,2.03e5,1.89e5,10078,inactive
Sid,SID104196380,1.45e5,1.54e5,2.26e5,2.11e5,14610,inactive
CG10931,SID104185807,96410,84440,88105,75575,6340,inactive
CR30374,SID104184872,97840,1.10e5,1.43e5,1.66e5,4810,inactive
RabX6,SID104188015,2.65e5,2.30e5,2.72e5,2.37e5,16695,inactive
CG32855,SID104192923,1.04e5,1.48e5,1.47e5,1.38e5,10455,inactive
klg,SID104193383,72930,76795,1.21e5,86390,9650,inactive
klg,SID104196770,1.10e5,1.12e5,1.53e5,1.57e5,9945,inactive
mmm,SID104190000,2.30e5,2.39e5,3.10e5,3.27e5,17240,inactive
CG12783,SID104194330,3.04e5,2.73e5,2.88e5,2.82e5,20638,inactive
mh,SID104199960,92445,76490,87130,90485,9690,inactive
GstT1,SID104186035,1.61e5,1.63e5,2.15e5,1.97e5,15090,inactive
CG15322,SID104200472,7450,7965,7095,6030,3675,inactive
l(3)72Dn,SID104190260,80050,93685,57390,62545,6030,inactive
PolD1,SID104190930,2.04e5,1.72e5,2.71e5,2.07e5,7585,inactive
RpL37-1,SID104199941,1.01e5,93515,97495,1.24e5,13165,inactive
RpL37-1,SID104201338,,,,,,inactive
CG6689,SID104195887,99405,1.36e5,88865,62140,9455,inactive
ND-MLRQ,SID104191705,2.25e5,2.10e5,2.67e5,2.60e5,16520,inactive
fz,SID104191140,2.09e5,1.84e5,2.83e5,2.52e5,8895,inactive
side-IV + CG17025 (retired record),SID104194960,2.50e5,2.56e5,2.30e5,2.94e5,18050,inactive
tara,SID104196868,1.70e5,1.40e5,1.14e5,1.11e5,17705,inactive
Alp8,SID104184145,61175,54330,74910,80045,2805,inactive
Ntl,SID104182795,1.60e5,1.72e5,2.55e5,2.55e5,12300,inactive
Polr3A,SID104199558,37220,40160,33500,35405,6692,inactive
phr,SID104187454,2.96e5,2.35e5,3.06e5,2.76e5,27970,inactive
Kat60,SID104192170,1.29e5,1.17e5,99290,93570,7038,inactive
eIF2D,SID104193708,2.23e5,2.14e5,2.25e5,2.22e5,15310,inactive
CG13857,SID104194499,1.67e5,1.51e5,1.69e5,1.68e5,12235,inactive
Amun,SID104199639,1.92e5,1.67e5,3.00e5,2.80e5,12945,inactive
MagR,SID104199884,73960,69120,79770,77500,10585,inactive
CG12912,SID104186019,7865,6965,9520,8680,1975,inactive
Rab39,SID104197619,1.44e5,1.47e5,2.29e5,2.91e5,10300,inactive
Datp,SID104180894,1.03e5,1.24e5,1.40e5,1.33e5,8400,inactive
CG34022 (retired record),SID104187741,1.60e5,1.40e5,2.09e5,2.10e5,8040,inactive
Fas2,SID104197100,69250,81325,92600,84380,5415,inactive
Fas2,SID104197101,67515,90345,1.11e5,94735,6410,inactive
Fas2,SID104198456,1.81e5,2.46e5,1.88e5,2.16e5,11285,active
CG6656,SID104195877,1.88e5,1.65e5,2.53e5,2.16e5,16740,inactive
